Results on three molecules are retold here after article PMC5393397.

Sequences of proteins named here, by UniProt entry; tags and fusion partners are left off.
UniProt P63073: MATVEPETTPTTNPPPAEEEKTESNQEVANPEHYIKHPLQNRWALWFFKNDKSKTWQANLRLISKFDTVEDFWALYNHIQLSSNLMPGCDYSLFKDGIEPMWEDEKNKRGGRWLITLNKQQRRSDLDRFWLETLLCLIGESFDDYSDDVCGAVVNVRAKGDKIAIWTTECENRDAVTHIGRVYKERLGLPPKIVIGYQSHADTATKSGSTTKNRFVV
UniProt P10630: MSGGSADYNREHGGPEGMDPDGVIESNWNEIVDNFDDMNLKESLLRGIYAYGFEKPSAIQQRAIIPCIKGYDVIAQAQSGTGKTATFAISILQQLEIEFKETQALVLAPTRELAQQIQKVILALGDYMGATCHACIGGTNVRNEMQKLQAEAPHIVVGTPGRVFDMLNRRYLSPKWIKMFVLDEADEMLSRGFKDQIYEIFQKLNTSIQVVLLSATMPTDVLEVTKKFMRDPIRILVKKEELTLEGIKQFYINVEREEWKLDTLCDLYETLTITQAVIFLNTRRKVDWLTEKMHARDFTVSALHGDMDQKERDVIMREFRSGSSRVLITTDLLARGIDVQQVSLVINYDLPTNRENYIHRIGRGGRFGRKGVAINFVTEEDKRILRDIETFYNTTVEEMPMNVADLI
UniProt Q80XI3: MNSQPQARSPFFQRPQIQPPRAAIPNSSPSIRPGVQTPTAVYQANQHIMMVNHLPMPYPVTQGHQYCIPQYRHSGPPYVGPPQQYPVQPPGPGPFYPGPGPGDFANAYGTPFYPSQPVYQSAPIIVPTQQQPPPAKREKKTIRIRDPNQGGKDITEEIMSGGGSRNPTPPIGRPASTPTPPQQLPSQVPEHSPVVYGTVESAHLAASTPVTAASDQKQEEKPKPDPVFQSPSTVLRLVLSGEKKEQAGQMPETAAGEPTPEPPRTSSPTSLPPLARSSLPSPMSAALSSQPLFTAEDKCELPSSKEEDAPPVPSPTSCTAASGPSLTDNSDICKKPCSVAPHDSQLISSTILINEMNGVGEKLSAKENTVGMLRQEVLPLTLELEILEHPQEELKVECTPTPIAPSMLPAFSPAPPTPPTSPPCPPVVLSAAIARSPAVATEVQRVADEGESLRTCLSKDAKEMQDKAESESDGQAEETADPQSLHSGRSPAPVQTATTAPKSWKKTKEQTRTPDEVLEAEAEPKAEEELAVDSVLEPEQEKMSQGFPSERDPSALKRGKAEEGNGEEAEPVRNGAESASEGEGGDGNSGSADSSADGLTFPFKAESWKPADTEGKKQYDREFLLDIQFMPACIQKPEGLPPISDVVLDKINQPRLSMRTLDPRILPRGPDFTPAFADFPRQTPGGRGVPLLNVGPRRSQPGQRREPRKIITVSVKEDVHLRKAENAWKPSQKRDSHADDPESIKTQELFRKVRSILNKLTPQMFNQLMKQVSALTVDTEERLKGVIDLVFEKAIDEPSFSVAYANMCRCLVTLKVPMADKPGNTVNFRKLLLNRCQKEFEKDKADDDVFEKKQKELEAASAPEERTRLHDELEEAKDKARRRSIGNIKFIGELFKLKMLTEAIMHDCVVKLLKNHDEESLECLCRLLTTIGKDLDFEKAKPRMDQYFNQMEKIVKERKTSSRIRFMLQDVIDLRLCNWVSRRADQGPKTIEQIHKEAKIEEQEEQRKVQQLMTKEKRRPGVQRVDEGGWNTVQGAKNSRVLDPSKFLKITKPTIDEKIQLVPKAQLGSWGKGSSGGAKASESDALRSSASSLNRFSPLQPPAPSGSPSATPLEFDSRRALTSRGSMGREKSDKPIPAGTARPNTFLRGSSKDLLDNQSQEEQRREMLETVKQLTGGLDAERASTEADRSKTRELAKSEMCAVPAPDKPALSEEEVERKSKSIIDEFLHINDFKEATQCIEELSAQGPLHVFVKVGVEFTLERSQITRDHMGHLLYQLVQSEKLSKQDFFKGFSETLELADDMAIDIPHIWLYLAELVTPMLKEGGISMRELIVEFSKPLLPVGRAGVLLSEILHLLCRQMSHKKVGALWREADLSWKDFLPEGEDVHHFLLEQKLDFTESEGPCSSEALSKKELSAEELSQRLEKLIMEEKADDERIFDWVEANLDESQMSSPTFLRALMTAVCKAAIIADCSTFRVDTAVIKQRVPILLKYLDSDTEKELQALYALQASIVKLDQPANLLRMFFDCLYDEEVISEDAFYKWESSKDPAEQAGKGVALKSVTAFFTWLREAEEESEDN

The target in this assay is eukaryotic initiation factor 4E (eIF4E), cap-binding protein (mouse (endogenous in BV-2)) (UniProt P63073). The assay can be described thus: affinity purification with mass spectrometry; m7GTP-Sepharose enrichment of eIF4E-containing cap-binding complexes from SILAC-labelled BV-2 cells, mock (0 h), 4 h and 9 h after MNV infection (MOI 10); samples combined, SDS-PAGE, in-gel trypsin, LC-MS/MS; three biological replicates.

No constants are given. Whether binding was seen depends on the method and setting. Binding seen in cells or lysates may run through a third protein. A yes stands for co-enrichment or nearness to the bait. Other partners may have been found.

Regarding “eIF4AII isoform of eIF4A (from UniProt P10630 1-407)”, the binding entry is “binds”.
As for “eIF4GII (eIF4G3), the ~170 kDa long form (from UniProt Q80XI3 1-1579)”, the entry is “binds”.

B1: Dap5 (eIF4G2), the ~100 kDa short form (protein, UniProt Q62448 1-906)
chain: MESAIAEGGASRFSASSGGGGSRGAPQHYPKTAGNSEFLGKTPGQNAQKWIPARSTRRDDNSAANNSANEKERHDAIFRKVRGILNKLTPEKFDKLCLELLNVGVESKLILKGVILLIVDKALEEPKYSSLYAQLCLRLAEDAPNFDGPAAEGQPGQKQSTTFRRLLISKLQDEFENRTRNVDVYDKRENPLLPEEEEQRAIAKIKMLGNIKFIGELGKLDLIHESILHKCIKTLLEKKKRVQLKDMGEDLECLCQIMRTVGPRLDHERAKSLMDQYFARMCSLMLSKELPARIRFLLQDTVELREHHWVPRKAFLDNGPKTINQIRQDAVKDLGVFIPAPMAQGRSDFFLEGPFMPPRMKMDRDPLGGLADMFGQMPGSGIGTGPGVIQDRFSPTMGRHRSNQLFNGHGGHIMPPTQSQFGEMGGKFMKSQGLSQLYHNQSQGLLSQLQGQSKDMPPRFSKKGQLNADEISLRPAQSFLMNKNQVPKLQPQITMIPPSAQPPRTQTPPLGQTPQLGLKTNPPLIQEKPAKTSKKPPPSKEELLKLTEAVVTDYLNSGNANDAVSGVREMRAPKHFLPEMLSKVIILSLDRSDEDKEKASSLISLLKQEGIATSDNFMQAFLNVLEQCPKLEVDIPLVKSYLAQFAARAIISELVSISELAQPLESGTHFPLFLLCLQQLAKLQDREWLTELFQQSKVNMQKMLPEIDQNKDRMLEILEGKGLSFLFPLLKLEKELLKQIKLDPSPQTIYKWIKDNISPKLHVDKGFVNILMTSFLQYISSEVSPPSDETDSSSAPSKEQLEQEKQLLLSFKPVMQKFLHDHVDLQVSALYALQVHCYNSSFPKGMLLRFFVHFYDMEIIEEEAFLAWKEDITQEFPGKGKALFQVNQWLTWLETAEEEESEEEAD
Turning to B1, the binding result is “binds”.
